# In all, about 290,000 compounds went through this assay and about 110 (0.038%) were called active. Inconclusive means that the source gave no clear call. Such entries were picked first, then a sample of the others. The call rests on the fitted dose curve; in most records, active means well fitted inhibition curve with a large enough effect in the polarisation, with a control signal flat (not every such curve was filed as active); inconclusive means small, poorly fitted or top-dose-only effect, or effect the other way, or a change in a side signal; inactive means no such curve, though single readings can be large or run the other way; the % refers to the polarisation. A potency beside an inconclusive call is a rough fit, not a confirmed value. “Side channel” marks fits to a control or component signal instead of the main read-out.
# Protein sequences, listed by entry. Tags and fused reporters are not part of them.
# UniProt Q03164, whole entry, looked up: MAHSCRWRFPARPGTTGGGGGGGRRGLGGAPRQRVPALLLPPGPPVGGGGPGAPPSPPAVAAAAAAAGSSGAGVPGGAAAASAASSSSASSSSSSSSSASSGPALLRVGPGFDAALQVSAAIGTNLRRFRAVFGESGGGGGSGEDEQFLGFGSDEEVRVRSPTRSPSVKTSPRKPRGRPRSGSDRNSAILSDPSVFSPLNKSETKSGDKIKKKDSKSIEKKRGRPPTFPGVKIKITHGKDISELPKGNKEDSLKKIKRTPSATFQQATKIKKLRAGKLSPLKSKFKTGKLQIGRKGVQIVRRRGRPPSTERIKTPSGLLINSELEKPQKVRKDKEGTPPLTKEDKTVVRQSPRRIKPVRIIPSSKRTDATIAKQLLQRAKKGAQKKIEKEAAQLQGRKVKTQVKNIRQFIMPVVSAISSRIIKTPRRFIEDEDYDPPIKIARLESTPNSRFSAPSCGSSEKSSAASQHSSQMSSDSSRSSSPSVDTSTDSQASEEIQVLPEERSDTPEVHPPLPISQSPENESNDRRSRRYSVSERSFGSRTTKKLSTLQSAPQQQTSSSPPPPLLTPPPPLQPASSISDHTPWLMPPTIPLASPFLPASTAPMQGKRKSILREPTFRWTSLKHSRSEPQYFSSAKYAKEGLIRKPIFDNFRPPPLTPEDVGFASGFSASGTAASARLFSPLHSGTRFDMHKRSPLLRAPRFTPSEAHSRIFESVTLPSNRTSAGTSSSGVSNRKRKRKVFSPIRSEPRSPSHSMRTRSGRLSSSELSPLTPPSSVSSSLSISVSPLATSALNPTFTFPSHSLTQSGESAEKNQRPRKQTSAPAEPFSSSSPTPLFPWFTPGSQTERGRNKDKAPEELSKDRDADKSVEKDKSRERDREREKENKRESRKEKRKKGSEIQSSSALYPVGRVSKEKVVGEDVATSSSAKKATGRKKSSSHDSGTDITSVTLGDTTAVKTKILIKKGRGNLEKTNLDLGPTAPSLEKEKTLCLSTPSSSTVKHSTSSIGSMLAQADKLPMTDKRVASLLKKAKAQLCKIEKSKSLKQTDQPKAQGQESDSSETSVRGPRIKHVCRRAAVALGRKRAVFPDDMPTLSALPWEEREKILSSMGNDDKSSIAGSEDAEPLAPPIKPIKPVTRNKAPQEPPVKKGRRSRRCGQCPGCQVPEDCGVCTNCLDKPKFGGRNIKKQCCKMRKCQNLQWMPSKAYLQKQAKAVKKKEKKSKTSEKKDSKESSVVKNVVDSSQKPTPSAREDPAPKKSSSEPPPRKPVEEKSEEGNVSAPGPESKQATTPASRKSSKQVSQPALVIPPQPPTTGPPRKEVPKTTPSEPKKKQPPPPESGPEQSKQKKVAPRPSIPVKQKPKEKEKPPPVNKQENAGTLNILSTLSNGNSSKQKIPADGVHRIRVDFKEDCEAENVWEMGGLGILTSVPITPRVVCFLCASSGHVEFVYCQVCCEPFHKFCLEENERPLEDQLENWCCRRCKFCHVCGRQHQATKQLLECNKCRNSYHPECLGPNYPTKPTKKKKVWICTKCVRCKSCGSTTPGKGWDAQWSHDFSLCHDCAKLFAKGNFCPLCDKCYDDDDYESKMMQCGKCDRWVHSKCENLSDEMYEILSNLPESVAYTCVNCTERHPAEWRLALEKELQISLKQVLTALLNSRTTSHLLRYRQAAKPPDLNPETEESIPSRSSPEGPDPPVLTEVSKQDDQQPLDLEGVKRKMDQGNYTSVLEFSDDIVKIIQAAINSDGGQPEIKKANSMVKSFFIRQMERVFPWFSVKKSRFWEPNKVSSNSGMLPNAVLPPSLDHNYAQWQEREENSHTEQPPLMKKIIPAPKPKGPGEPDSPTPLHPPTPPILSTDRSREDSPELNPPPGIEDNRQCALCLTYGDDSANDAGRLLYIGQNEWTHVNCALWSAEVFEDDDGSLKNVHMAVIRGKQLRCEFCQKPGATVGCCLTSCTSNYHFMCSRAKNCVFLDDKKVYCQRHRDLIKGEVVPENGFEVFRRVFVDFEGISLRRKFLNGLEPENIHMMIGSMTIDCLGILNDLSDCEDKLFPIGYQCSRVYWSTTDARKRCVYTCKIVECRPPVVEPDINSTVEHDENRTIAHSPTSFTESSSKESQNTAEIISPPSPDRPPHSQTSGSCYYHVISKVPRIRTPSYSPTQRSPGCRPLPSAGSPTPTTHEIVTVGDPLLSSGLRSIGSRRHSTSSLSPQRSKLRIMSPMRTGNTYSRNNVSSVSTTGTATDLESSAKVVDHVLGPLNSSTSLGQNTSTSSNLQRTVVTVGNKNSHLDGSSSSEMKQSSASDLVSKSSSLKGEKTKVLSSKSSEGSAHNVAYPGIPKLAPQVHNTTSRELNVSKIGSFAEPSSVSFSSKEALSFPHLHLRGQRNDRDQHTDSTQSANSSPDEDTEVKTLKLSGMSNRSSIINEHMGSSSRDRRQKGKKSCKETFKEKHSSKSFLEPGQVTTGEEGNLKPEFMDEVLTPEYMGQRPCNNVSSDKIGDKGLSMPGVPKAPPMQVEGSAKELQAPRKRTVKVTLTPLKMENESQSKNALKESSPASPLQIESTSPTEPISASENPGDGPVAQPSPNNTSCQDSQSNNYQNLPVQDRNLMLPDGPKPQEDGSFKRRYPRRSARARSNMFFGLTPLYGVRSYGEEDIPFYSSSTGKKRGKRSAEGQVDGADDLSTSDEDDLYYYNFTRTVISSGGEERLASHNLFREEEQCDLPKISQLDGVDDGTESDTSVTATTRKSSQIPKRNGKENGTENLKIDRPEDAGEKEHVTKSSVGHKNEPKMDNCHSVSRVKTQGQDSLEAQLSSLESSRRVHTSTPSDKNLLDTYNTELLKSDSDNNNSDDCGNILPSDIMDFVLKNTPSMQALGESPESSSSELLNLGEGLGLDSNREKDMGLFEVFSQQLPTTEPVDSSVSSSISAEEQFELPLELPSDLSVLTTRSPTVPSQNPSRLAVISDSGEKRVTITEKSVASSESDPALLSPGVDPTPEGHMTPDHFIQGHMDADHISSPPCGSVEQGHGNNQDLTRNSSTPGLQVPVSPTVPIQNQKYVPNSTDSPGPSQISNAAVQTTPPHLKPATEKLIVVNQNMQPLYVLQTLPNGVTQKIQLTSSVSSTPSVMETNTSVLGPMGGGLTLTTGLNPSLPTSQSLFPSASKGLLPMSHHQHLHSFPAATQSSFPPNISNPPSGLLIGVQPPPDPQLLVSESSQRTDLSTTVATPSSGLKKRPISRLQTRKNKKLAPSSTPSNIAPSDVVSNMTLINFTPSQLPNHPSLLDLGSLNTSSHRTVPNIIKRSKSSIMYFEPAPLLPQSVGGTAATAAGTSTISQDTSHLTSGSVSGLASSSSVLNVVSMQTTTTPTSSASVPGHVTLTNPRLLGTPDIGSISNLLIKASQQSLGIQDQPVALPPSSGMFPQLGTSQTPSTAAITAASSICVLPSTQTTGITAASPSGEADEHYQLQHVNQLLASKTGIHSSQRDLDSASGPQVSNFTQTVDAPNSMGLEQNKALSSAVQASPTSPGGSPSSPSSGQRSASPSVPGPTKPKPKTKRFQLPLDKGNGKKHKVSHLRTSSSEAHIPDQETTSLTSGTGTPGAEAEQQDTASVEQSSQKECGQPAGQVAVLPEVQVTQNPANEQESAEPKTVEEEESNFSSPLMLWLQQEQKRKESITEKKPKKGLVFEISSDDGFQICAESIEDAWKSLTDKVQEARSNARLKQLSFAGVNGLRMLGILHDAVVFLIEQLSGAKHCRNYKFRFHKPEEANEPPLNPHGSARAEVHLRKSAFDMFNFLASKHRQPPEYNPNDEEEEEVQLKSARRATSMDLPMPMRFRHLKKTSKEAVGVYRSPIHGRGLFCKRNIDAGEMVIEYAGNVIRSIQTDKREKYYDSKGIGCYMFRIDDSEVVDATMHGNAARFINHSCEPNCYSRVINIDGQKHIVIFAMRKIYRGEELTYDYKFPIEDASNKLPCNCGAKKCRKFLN
# Molecular target: Histone-lysine N-methyltransferase 2A (Homo sapiens) (UniProt Q03164)
# Experiment: qHTS Fluorescence Polarization Assay for Inhibitors of MLL CXXC domain - DNA interaction
# Conditions: MLL-CXXC / FITC-HOXA9 DNA fluorescence polarization; series mostly up to 115 µM
# Summary of the method: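 Purified MLL-CXXC (added from a 7 uM solution) was preincubated 5 min at ambient with pinned compounds in 50 mM Tris-HCl pH 7.5, 50 mM NaCl, 1 mM DTT, 0.05% BSA. Fluorescein-labeled HOX-A9 DNA (50 nM solution) followed, 30 min, then polarization read.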
# Potency means the concentration at half of the fitted maximal effect.
row,Compound,Potency
1,Cc1cccc(NC(=S)NC23CN4CN(CN(C4)C2)C3)c1C,"inconclusive: 2.51 µM [fluorescent, side channel, full curve]"
2,O=C(NCCSCc1ccccc1)c1ccc(F)cc1,inactive
3,Cc1cc(NS(=O)(=O)c2ccc(NC(=O)/C=C/c3c(F)cccc3Cl)cc2)no1,"inconclusive: 14.1 µM [fluorescent, side channel, single point]"
4,O=C(N/N=C\c1cc([N+](=O)[O-])ccc1N1CCCC1)c1ccccn1,"inconclusive: 35.5 µM [quencher, side channel, single point]"
5,O=C(COC(=O)c1cnc(Cl)c(Cl)c1)Nc1ccc(S(=O)(=O)N2CCCC2)cc1,inactive
6,COc1ccc(C(=O)N2CCC(C(=O)Nc3ccccc3OC)CC2)cc1,"inconclusive: 14.1 µM [quencher, side channel, single point]"
7,Cc1c(/C=N/NC(=O)c2cc(=O)[nH]c(=O)[nH]2)c2ccccn2c1C(=O)c1ccccc1,inactive
8,Cc1[nH]n(-c2ccccc2)c(=O)c1N=Nc1cccc(C(=O)O)c1,"inconclusive: 8.91 µM [inhibitor, partial curve]"
9,CN1CCN(C(=S)Nc2cccc(Cl)c2)CC1,"inconclusive: 10 µM [fluorescent, side channel, single point]"
10,CN1CCCN(C(=O)CC2(CC(=O)O)CCCC2)CC1,"inconclusive: 2.51 µM [fluorescent, side channel, partial curve]"
11,O=C(CCN1CCOCC1)c1ccccc1,"inconclusive: 8.91 µM [fluorescent, side channel, single point]"
12,O=C(Cc1ccccc1)NNC(=O)c1ccc(Br)o1,"inconclusive: 15.8 µM [quencher, side channel, single point]"
13,O=C(Nc1ccnn1C1CCN(C2CCCC2)CC1)c1ccccc1,"inconclusive: 1 µM [inhibitor, full curve, poor fit]"
14,COc1cc(/C=C2\C(=O)NN(c3ccccc3)C2=O)cc([N+](=O)[O-])c1O,active: 25.1 µM
15,CC(=O)c1cccc(OCc2cc(C(=O)NC3CCN(Cc4ccccc4)CC3)no2)c1,"inconclusive: 8.91 µM [quencher, side channel, single point]"
16,Cc1cc(C)cc(N2CC(C)Cn3c2nc2c3c(=O)[nH]c(=O)n2C)c1 (centres undefined),"inconclusive: 63.1 µM [fluorescent, single point]"
17,COc1ccc(NC(=O)CS(=O)c2cccc(C(F)(F)F)c2)cc1 (centres undefined),"inconclusive: 14.1 µM [fluorescent, side channel, single point]"
18,Cc1ccc2cc(CN(CCc3ccccc3)C(=S)NCCCN(C)C)c(=O)[nH]c2c1,"inconclusive: 25.1 µM [quencher, side channel, partial curve]"
19,CCCCCCCn1c(=N)n(CC(=O)c2ccco2)c2ccccc21,"inconclusive: 35.5 µM [quencher, side channel, single point]"
20,Cc1cc(=O)[nH]c(N/N=C/c2c(O)n(-c3ccccc3)c(=O)c3ccccc23)n1,"inconclusive: 25.1 µM [fluorescent, side channel, partial curve]"

# Of the compounds above, 3 contain a Cl atom:
row,Compound,Potency
3,Cc1cc(NS(=O)(=O)c2ccc(NC(=O)/C=C/c3c(F)cccc3Cl)cc2)no1,"inconclusive: 14.1 µM [fluorescent, side channel, single point]"
5,O=C(COC(=O)c1cnc(Cl)c(Cl)c1)Nc1ccc(S(=O)(=O)N2CCCC2)cc1,inactive
9,CN1CCN(C(=S)Nc2cccc(Cl)c2)CC1,"inconclusive: 10 µM [fluorescent, side channel, single point]"

# Remaining list, next part.

row,Compound,Potency
1,N#Cc1c(SCC(N)=O)nc(-c2ccccc2)c2c1CCCC2,inactive
2,Cc1nc2ccc(NC(=O)c3ccc(Cl)c(S(=O)(=O)N(C)c4ccccc4)c3)cc2s1,"inconclusive: 70.8 µM [fluorescent, side channel, single point]"
3,COc1ccc2c(Cl)c(C(=O)N/N=C3\CCCC(=O)C3)sc2c1,"inconclusive: 1.12 µM [fluorescent, side channel, full curve]"
4,CN1C(=O)/C(=C/c2ccc(O)c([N+](=O)[O-])c2)NC1=S,"inconclusive: 891 µM [quencher, side channel, partial curve]"
5,COc1ccccc1C(=O)NNC(=O)c1ccc(NC(=O)c2ccccc2)cc1,"inconclusive: 70.8 µM [inhibitor, single point]"
6,Cc1ccc(-c2csc(NC(=O)COC(=O)c3cccc(S(=O)(=O)N4CCOCC4)c3)n2)cc1,"inconclusive: 14.1 µM [inhibitor, single point]"
7,CSc1ncc(CN2CCCCC2C(=O)Nc2ccc(Oc3ccccc3)nc2)cn1 (centres undefined),"inconclusive: 10 µM [fluorescent, side channel, partial curve]"
8,O=C1[C@@H]2Cc3c([nH]c4ccccc34)CN2C(=O)CN1CCCO,"inconclusive: 7.94 µM [inhibitor, single point]"
9,CN1CCc2c(sc3c2C(=O)NC(c2ccc(-c4ccc(Cl)cc4)o2)N3)C1 (centres undefined),"inconclusive: 44.7 µM [quencher, side channel, single point]"
10,CC(Oc1ccc2ccccc2c1)C(=O)NNC(=S)NC(=O)c1ccco1 (centres undefined),"inconclusive: 8.91 µM [fluorescent, side channel, partial curve]"
11,COCCCn1c(SCC(=O)N2CCCC(C)C2)nnc1-c1ccco1 (centres undefined),"inconclusive: 89.1 µM [inhibitor, single point]"
12,O=C(OCCN1C(=O)c2cccc3c(N4CCOCC4)ccc(c23)C1=O)c1cc(Cl)cc(Cl)c1,"inconclusive: 15.8 µM [fluorescent, side channel, partial curve]"
13,CCOC(=O)/C=c1\s/c(=C\c2ccc3cc(OC)ccc3c2)c(=O)n1CC(=O)NCC1CCCO1 (centres undefined),"inconclusive: 70.8 µM [fluorescent, side channel, single point]"
14,CCOC(=O)c1cc(C#N)c(SCC(N)=O)[nH]c1=O,"inconclusive: 44.7 µM [fluorescent, side channel, partial curve]"
15,C[N+]1(CC2COC3(CCCCC3)O2)CCCCC1 (centres undefined),inactive
16,CCOc1ccc(NC(=O)Nc2nc3ccc(S(C)(=O)=O)cc3s2)cc1,"inconclusive: 17.8 µM [quencher, side channel, partial curve]"
17,CCOC(=O)C1CCCN(C2=NC(=O)/C(=C/c3ccc(N(C)C)cc3)S2)C1 (centres undefined),"inconclusive: 31.6 µM [fluorescent, side channel, partial curve]"
18,Cn1c(C2CCCCC2)nc2c1c(=O)[nH]c(=O)n2Cc1ccccc1,"inconclusive: 50.1 µM [inhibitor, single point]"
19,Cc1c(N/N=C(\C#N)C(=O)c2ccc(Cl)cc2)c(=O)n(-c2ccccc2)n1C,"inconclusive: 63.1 µM [fluorescent, side channel, single point]"
20,O=C(CSc1ncccc1C(=O)O)NC12CC3CC(CC(C3)C1)C2,"inconclusive: 39.8 µM [fluorescent, side channel, partial curve]"

# 2 consecutive records from above, quoted:
row,Compound,Potency
13,CCOC(=O)/C=c1\s/c(=C\c2ccc3cc(OC)ccc3c2)c(=O)n1CC(=O)NCC1CCCO1 (centres undefined),"inconclusive: 70.8 µM [fluorescent, side channel, single point]"
14,CCOC(=O)c1cc(C#N)c(SCC(N)=O)[nH]c1=O,"inconclusive: 44.7 µM [fluorescent, side channel, partial curve]"

# Further records.

row,Compound,Potency
1,COc1ccc(-c2nc(SCc3ccc(C#N)cc3)[nH]c(=O)c2C#N)cc1,"inconclusive: 35.5 µM [fluorescent, side channel, single point]"
2,COc1ccc(C(=O)NC2CCc3ccccc32)cc1OC1CCN(C(C)C)CC1 (centres undefined),"inconclusive: 12.6 µM [fluorescent, side channel, full curve]"
3,Cc1oc(-c2ccccc2F)nc1CSCC(=O)NC1CC1,inactive
4,COc1cccc(OCc2cc(C3Nc4ccccc4C(=O)N3Cc3ccco3)ccc2OC)c1 (centres undefined),inactive
5,CSc1nnnn1CCn1nnnc1SC,"inconclusive: 10 µM [inhibitor, single point]"
6,Oc1c(Cl)cc(Cl)cc1/C=N/c1nc(-c2ccc(Cl)cc2)cs1,"inconclusive: 14.1 µM [fluorescent, side channel, single point]"
7,COc1ccccc1-n1c(CNC(=O)c2ccco2)n[nH]c1=S,"inconclusive: 89.1 µM [quencher, side channel, single point]"
8,Cn1c2ccccc2c2ncn(CCCN3CCOCC3)c(=O)c21,inactive
9,Cc1ccc(C(=O)N2CCC3(CC2)Oc2ccc(F)cc2C(=O)C32CC(c3cccnc3)=NO2)s1 (centres undefined),inactive
10,COc1ccc(C(=O)CC(=O)C(=O)Nc2ccc(C)c(C)c2)cc1,"inconclusive: 44.7 µM [fluorescent, side channel, single point]"
11,CCN(CC)C(=O)/C(C#N)=C/c1cc(O)c(O)c([N+](=O)[O-])c1,"inconclusive: 100 µM [fluorescent, side channel, single point]"
12,COCCN(CCOC)C(=S)Nc1ccccc1Cl,"inconclusive: 15.8 µM [fluorescent, side channel, partial curve]"
13,CC(c1ccccc1)n1c(-c2cccs2)nc2c(c(=O)c3ccccc3n2C)c1=O (centres undefined),inactive
14,CN(C)[C@H]1C(=O)C(C(=O)NCN2CCCC2)=C(O)[C@]2(O)C(=O)C3=C(O)c4c(O)cccc4[C@](C)(O)[C@H]3C[C@H]12,inactive
15,c1ccc(-c2nccc(-c3ccc(-n4cnc5ccccc54)cc3)n2)nc1,"inconclusive: 35.5 µM [quencher, partial curve]"
16,CC(=O)C(=Nc1ccccc1Cl)NNc1ccc(Cl)cc1,inactive
17,Cc1ccc(S(=O)(=O)NCc2ccccc2)cc1C(=O)N(C)Cc1ccc(F)cc1,"inconclusive: 89.1 µM [quencher, side channel, single point]"
18,Cc1ccc(-c2ccc(/C=N/N=C3/NC(=O)C(CC(=O)O)S3)o2)c([N+](=O)[O-])c1 (centres undefined),"inconclusive: 35.5 µM [inhibitor, single point]"
19,CCCCn1c(=NC(=O)c2ccco2)c(C(=O)OCC)cc2c(=O)n3ccccc3nc21,inactive

# From PubChem BioAssay AID2662 (National Center for Advancing Translational Sciences (NCATS), 2010)
